Assay: soluble on expression in E. coli; label from the status in PepcDB or PDB records

## GGALSYETEILTVEYGLLPIGKIVEKRIECTVYSVDNNGNIYTQPVAQWHDRGEQEVFEYCLEDGSLIRATKDHKFMTVDGQMLPIDEIFERELDLMRVDNLPNIKIATRKYLGKQNVYDIGVERDHNFALKNGFIASN
  soluble on expression in E. coli: soluble

## LQPATAEAADSYKIVGYYPSWAAYGRNYNVADIDPTKVTHINYAFADICWNGIHGNPDPSGPNPVTWTCQNEKSQTINVPNGTIVLGDPWIDTGKTFAGDTWDQPIAGNINQLNKLKQTNPNLKTIISVGGWTWSNRFSDVAATAATREVFANSAVDFLRKYNFDGVDLDWEYPVSGGLDGNSKRPEDKQNYTLLLSKIREKLDAAGAVDGKKYLLTIASGASATYAANTELAKIAAIVDWINIMTYDFNGAWQKISAHNAPLNYDPAASAAGVPDANTFNVAAGAQGHLDAGVPAAKLVLGVPFYGRGWDGCAQAGNGQYQTCTGGSSVGTWEAGSFDFYDLEANYINKNGYTRYWNDTAKVPYLYNASNKRFISYDDAESVGYKTAYIKSKGLGGAMFWELSGDRNKTLQNKLKADL
  soluble on expression in E. coli: soluble

## MAKRDYYEVLEITKSASADEIKKAYRKLAIKFHPDKNPDNPEAEEKFKEAAEAYEVLSTPEKRQRYDQYGHQAAGGGGYGGGMNMDDIFSQFGDVFGSGGSPFESFFGGGGGGRGRGVRKGSNLRIKLKLNLEEIANGCEKKIKVKRQVACDECSGTGAKNGAVQKCGTCNGTGQVKRVVNTMLGQMMSATTCPTCNGEGTTIKDKCTSCHGQGTVEKEETITIKIPAGVVDGMQLSMSGKGNMPPRGGVAGDLLILIEEIEDEQLKRDGLNIIYELYVTFFDAVFGTSVEVPTVDGKVKIKIEPGTQSGKILRLRSKGLKDVNSYQKGDQLIYVNVWTPQTLSKEEKELLATIKESENFKPNPGKNDKSFFERMKEFF
  soluble on expression in E. coli: not soluble

## MEQRGRASQDEEQAIVGAETGSQPSLPVSPMRPIIAPSPAMVLPTPGHGMGIPQFGPVGLPAQASTPMLSSTPGPSYSSAPTPMPNPSAANLWPTYKLVAEIPNAHKKSISGIKFSPDGRYMGSGSADCSIKIWRMDFVYEKTLMGHRLGINEFSWSSDSKLIVSCSDDKLVKVFDVSSGRCVKTLKGHTNYVFCCCFNPSGTLIASGSFDETIRIWCARNGNTIFSIPGHEDPVSSVCFNRDGAYLASGSYDGIVRIWDSTTGTCVKTLIDEEHPPITHVKFSPNGKYILASNLNNTLKLWDYQKLRVLKEYTGHENSKYCVAANFSVTGGKWIVSGSEDHKVYIWNLQTREILQTLDGHNTAVMCTDCHPGQNIIASAALEPDMRIKIWRSQS
  soluble on expression in E. coli: not soluble

## MGNKQGKTDVILIGAGIMSATLGTLLKELAPEWDIVVFERLEEAGAESSNEWNNAGTGHAALCELNYTVEKSDGSIDISKAIKINEQFYVSLQFWAHLVNSGVLANPKEFIRPLPHMSFVQGEDNVAFLKKRHETMAANPLFKGMEFSDDPKKLAEWVPLMMEDRVVTEPIAATRIESGTDVNFGALTRQLFEHLKRKNVNIHYRHHVEDIQRTSDGLWELKVRNLDTGAVERHAAKFVFIGAGGGSLHLLQKSGIPEGKGIGGFPVSGLFMVCNNPEVVEKHHAKVYGKAKVGAPPMSVPHLDTRFIDNQKMLLFGPFAGFSPKFLKNGSMLDLFTSIKPHNVLTILAAGVKNMALTNYLIQQVLLSKEQRMQELREFVPTAKSDEWDIVVAGQRVQVIKDTESGGKGTLQFGTEVVHAADGSIAALLGASPGASTAVHVMLEVIEKCFPEQMKEWRPKVKEMIPSYGESLMKNESLLRQVQASTAEALGLNGHFALQLA
  soluble on expression in E. coli: not soluble

## MGPRASLSRLRELCGHWLRPALHTKKQILELLVLEQFLSVLPPHLLGRLQGQPLRDGEEVVLLLEGIHREPSHAGPLDFSCNAGKSCPRADVTLEEKGCASQVPSHSPKKELPAEEPSVLGPSDEPPRPQPRAAQPAEPGQWRLPPSSKQPLSPGPQKTFQALQESSPQGPSPWPEESSRDQELAAVLECLTFEDVPENKAWPAHPLGFGSRTPDKEEFKQEEPKGAAWPTPILAESQADSPGVPGEPCAQSLGRGAAASGPGEDGSLLGSSEILEVKVAEGVPEPNPELQFICADCGVSFPQLSRLKAHQLRSHPAGRSFLCLCCGKSFGRSSILKLHMRTHTDERPHACHLCGHRFRQSSHLSKHLLTHSSEPAFLCAECGRGFQRRASLVQHLLAHAQDQKPPCAPESKAEAPPLTDVLCSHCGQSFQRRSSLKRHLRIHARDKDRRSSEGSGSRRRDSDRRPFVCSDCGKAFRRSEHLVAHRRVHTGERPFSCQACGRSFTQSSQLVSHQRVHTGEKPYACPQCGKRFVRRASLARHLLTHGGPRPHHCTQCGKSFGQTQDLARHQRSHTGEKPCRCSECGEGFSQSAHLARHQRIHTGEKPHACDTCGHRFRNSSNLARHRRSHTGERPYSCQTCGRSFRRNAHLRRHLATHAEPGQEQAEPPQECVECGKSFSRSCNLLRHLLVHTGARPYSCTQCGRSFSRNSHLLRHLRTHARETLY
  soluble on expression in E. coli: soluble

## MGSTAVVHGDDLMEPTLQSILSQKTLRWIFVGGKGGVGKTTTSCSLAIQLAKVRKSVLLISTDPAHNLSDAFGQKFGKEARLVDGYSNLSAMEIDPNGSIQDLLASGDSQGDDPLAGLGMGNMMQDLAFSIPGVDEAMSFAEVLKQVKSLSYEVIVFDTAPTGHTLRFLQFPTVLEKALAKLSQLSSQFGPMLNSILGARGGLPGGQNIDELLQKMESLRETISEVNTQFKNPDMTTFVCVCIAEFLSLYETERMIQELTSYGIDTHAIVVNQLLFPKEGSGCEQCNARRKMQKKYLEQIEELYEDFNVVRMPLLVEEVRGKEKLEKFSEMLVHPYVPPQLEHHHHHH
  soluble on expression in E. coli: soluble

## MSLTLQELESTLWQCADILRGELSAAEYKDYIFGMLFLKRLNDEFDEEREERRKEFLEDGLDKEEVIELLEDPSIYETFFVPEQARWEKLRNLTLNIGPELDKAFKALEDEPKNSELVGVLSTTNYNDKEKVPDKKLAQLLVLFSTVNLANSNLASEDMLGDAYQYLIKQFADQGGKKGGEFYTPTEVVKVITNILKPQEGDRIYDPTCGSGGMLIQSIEYVKKHGGNPKNLSLFGQEINLSTWAICKMNMLFHGAKGADIQKGDTIREPKHTEGGALKVFDKVLANPPFSLKNWGAEEASYDAFHRFTYGIPPKSYGDLAFVEHMLGSLNMKGKMASVVPHGVLFRGSAEGKIRKGFIEDDLIEAVIGLPQNLFYGTGIPAAILVLNKAKSEERKNKILFIDGSNDFVKQGNKNKLREEDIEKIITAFDKFEDVEKYANVIDLETIKENDYNLNISRYVDTTEEEEPVDIQKVIDEIKELEKEEEKTKEKLNGYLKELGFDEGHHHHHH
  soluble on expression in E. coli: soluble

## MSRDTERYPVKHANSLWQIYKTVPFWKVVKNFVVIQLARYTPFVSVKNWLYRTFLKMDVGEKTAFALMVMPDIMFPERISVGRNSIIGYNTTILAHEYLIEEYRLGDVIIGDEVMVGANTTILPGVTIGDRAIIAAGTVVHKNVPPGAFVGGNPLEHHHHHH
  soluble on expression in E. coli: soluble

## MTKKKKLTHGQVRRVRNNQHKKLKQEESIVWDEALLGSAQPGLVITRFGQHADIEDPVTGEIHRCNLRRGIESLVSGDNVLWRPGAETLAGISGVVEAVEARSSVLVRPDYYDGLKPVAANVDQMVIVSSVLPELSLNIIDRYLIASETLGIAPLIVLNKIDLLSPELREQYSTWLNDYRAIGYDVLYVSKKTGEGIADLEVKLRDRTNVFVGQSGVGKSSLVNALLPELEEDVEEGAISETSGLGQHTTTAARLYHIPSGGDLIDSPGVREFGLWHLETDDVTKAYVEFRPYLGGCKFRDCKHGDDPGCLLREAVSKGEISALRFDNYHRIVQSMTENKANRQYSRSKKPICKSKLLASLEHLLTEGAIFSNISRPSPLYWNVNHG
  soluble on expression in E. coli: not soluble

## MVNALEVPADLLIRRVARKLKEKYPQVKPPAWAYFAKTGPHKERPPTDRDWWYVRAASILRKLYKSPEPIGIETFRTIYGGRQNRGSAPEHFRKAGGSVPRKILQQLEEAGLVVKVPGRGRTISPAGRSLLDTTAREIMEELVKTRPELERYLAAAAAALEHHHHHH
  soluble on expression in E. coli: soluble

## SESRGGRDRKLFVGMLNKQQSEEDVLRLFQPFGVIDECTVLRGPDGSSKGCAFVKFSSHTEAQAAIHALHGSQTMPGASSSLVVKFADTDKE
  soluble on expression in E. coli: soluble

## SQVKQKVYELYKGTVERVTGPRTVSAFLDKGVLSVPEFILAGDNLVSKCPTWSWEAGDPSKRKPYLPPDKQFLVTRNVPCLRRAVSLEEEYDAAGAEVVLGDDEDGEGWLATHGVQASKPEEEEDIPSMDTLDIGKTEGINSIPSYFSAGKKAEEEEDIPDMDTYEDTGNDSVATAQPSYFVAEEPEDDNILRTRTYDVSITYDKYYQTPRVWLTGYDESRMPLKPELVFEDISQDHARKTVTIEDHPHLSAGKHASVHPCKHAAVMKKIIDVLMSRGVEPEVDK
  soluble on expression in E. coli: soluble
